Results are given in words; binding and its absence hold for the method and conditions named. Binding seen in cells or lysates may run through a third protein. Binding calls can cover weak binding; strength is not graded here. Values belong to the molecule of their own block, whether it stands above or below them.
Key:
[1] = target: T1, endogenous MTHFD2 (human (endogenous in HCT116)) (UniProt P13995); assay: co-IP; endogenous proteins; HCT116 whole-cell lysates incubated with anti-MTHFD2, anti-SIRT3 or control IgG, then Protein-A beads, 4 °C; 1% Nonidet P40 buffer; western blot
T1 sequence: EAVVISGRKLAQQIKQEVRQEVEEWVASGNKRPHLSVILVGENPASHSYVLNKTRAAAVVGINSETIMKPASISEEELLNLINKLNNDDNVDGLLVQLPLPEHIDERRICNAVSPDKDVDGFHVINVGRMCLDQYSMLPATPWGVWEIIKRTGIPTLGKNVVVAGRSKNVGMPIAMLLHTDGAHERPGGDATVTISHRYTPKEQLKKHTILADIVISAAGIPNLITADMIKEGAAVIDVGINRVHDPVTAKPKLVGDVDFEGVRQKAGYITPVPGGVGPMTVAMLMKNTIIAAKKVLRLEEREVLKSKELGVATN

[2] = target: endogenous SIRT3 (human (endogenous in HCT116)); assay: as above

binding [1]: binds
Molecule: endogenous SIRT3 (human (endogenous in HCT116)) (enzyme)

binding [2]: binds
B1: endogenous MTHFD2 (enzyme, UniProt P13995 36-350)
chain: T1 sequence
